Among all 31,000 sequences or so, about 1,400 (4.5%) were called active.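 Rule for the calls: active = median seed-adjusted z-score above 1 or below -1; inactive = the rest.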 Some of the results follow.
Experiment: Novel Modifiers of Survival Motor Neuron (SMN) Protein: Gene Identification via Genome-wide siRNA Screen;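 note: luminescence tracks full-length SMN protein made from the SMN2 reporter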
Conditions: HEK293T SMN2-luciferase reporter, siRNA knockdown, 72 h; actives lie on both sides
How it was run: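 Genome-wide siRNA screen (10418 genes, 3 siRNAs each, 1 pmol per well) by reverse transfection in HEK293T cells stably carrying an SMN2-luciferase reporter; luminescence after 72 hours, normalized to negative-control siRNA, log10-transformed, MAD-scored.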

Question: For GGAAGUCUACGGCUCCACATT against SLC27A5, which median seed-adjusted z-score is on record?
Answer: The median seed-adjusted z-score was inactive: 0.441.

Question: Which median seed-adjusted z-score does the source give for GUCAUAGACUUAAAGGACUTT against SPSB3 here?
Answer: The median seed-adjusted z-score was inactive: 0.457.

Question: With AGCCUGUAGCUUAAACUUATT against KCTD12 as the sequence, how does the median seed-adjusted z-score read?
Answer: The median seed-adjusted z-score was inactive: 0.431.

Question: Which median seed-adjusted z-score does the source give for CAACCUGAAUUAAAGUCUATT against DARC here?
Answer: Its median seed-adjusted z-score is inactive: 0.0814.

Question: Which median seed-adjusted z-score does the source give for ACCUGUACCUCGAAGUCUATT against GPBAR1 here?
Answer: Its median seed-adjusted z-score is inactive: -0.00293.

Question: With GCAGGAACGAGACCAGCAATT against HRH2 as the sequence, how does the median seed-adjusted z-score read?
Answer: The median seed-adjusted z-score was inactive: -0.257.

Question: Which median seed-adjusted z-score does the source give for GUUACGCCCUGAUUCUAAATT against MAT2A here?
Answer: The median seed-adjusted z-score was active: -1.9.

Question: For GCAAGGUGGUGUCCCUGUATT against BOK, which median seed-adjusted z-score is on record?
Answer: The median seed-adjusted z-score was inactive: 0.

Question: With GUAUGCGACUGGGAUCUUATT against HP as the sequence, how does the median seed-adjusted z-score read?
Answer: Its median seed-adjusted z-score is inactive: 0.

Question: With GCCCUCUUGUUCUAACUGATT against EIF5 as the sequence, how does the median seed-adjusted z-score read?
Answer: Its median seed-adjusted z-score is inactive: 0.362.

Question: With GGACCAUCCUGAUUAUCCATT against AKR1C4 as the sequence, how does the median seed-adjusted z-score read?
Answer: Its median seed-adjusted z-score is inactive: -0.0323.

Question: For GGAAGGAUAUGAGCAUAGATT against KLHL4, which median seed-adjusted z-score is on record?
Answer: The median seed-adjusted z-score was inactive: 0.

Question: For GAACUUCGAGAGUCAAAUATT against MDS1, which median seed-adjusted z-score is on record?
Answer: Its median seed-adjusted z-score is inactive: 0.0345.

Question: For GGAAUAUUAUGACUACAGUTT against UGT2B15, which median seed-adjusted z-score is on record?
Answer: The median seed-adjusted z-score was inactive: 0.421.

Question: With CCAACGACCUGGUUAUGAATT against FBP1 as the sequence, how does the median seed-adjusted z-score read?
Answer: Its median seed-adjusted z-score is inactive: -0.221.

Question: Which median seed-adjusted z-score does the source give for GGAUAGUUUUUCGAAUUAATT against MYO9A here?
Answer: The median seed-adjusted z-score was inactive: -0.567.

Question: Which median seed-adjusted z-score does the source give for GCACACUUCUACUAUGCUATT against PAQR7 here?
Answer: Its median seed-adjusted z-score is inactive: -0.0406.

Question: Which median seed-adjusted z-score does the source give for GGUCAACCAGAAUACAUAUTT against DNAI1 here?
Answer: The median seed-adjusted z-score was inactive: -0.783.

Question: For CUAAUUGUCUCACAGAAAATT against HDC, which median seed-adjusted z-score is on record?
Answer: Its median seed-adjusted z-score is inactive: -0.0146.

Question: Which median seed-adjusted z-score does the source give for GCCUCUUCUGGAAACGAAATT against JMJD1B here?
Answer: Its median seed-adjusted z-score is inactive: 0.402.

Question: Which median seed-adjusted z-score does the source give for GGACAAUCUUAUUCCUAUUTT against CFHR4 here?
Answer: Its median seed-adjusted z-score is inactive: -0.0972.

Question: With GCCUUGAUGCUGAUCAUCATT against MEP1B as the sequence, how does the median seed-adjusted z-score read?
Answer: The median seed-adjusted z-score was active: 1.46.

Question: With CGGUCCAAAUUGAAAGCGATT against STX1B as the sequence, how does the median seed-adjusted z-score read?
Answer: The median seed-adjusted z-score was inactive: 0.229.

Question: For CACUCAAAGUGCCUCUAAATT against SLC2A4RG, which median seed-adjusted z-score is on record?
Answer: The median seed-adjusted z-score was inactive: -0.0232.

Question: For GAUGAUGACAAUUAUGUGATT against RFNG, which median seed-adjusted z-score is on record?
Answer: Its median seed-adjusted z-score is inactive: 0.

Question: For CAACGAAGAGGGCAUGUUUTT against MEOX2, which median seed-adjusted z-score is on record?
Answer: Its median seed-adjusted z-score is active: 1.36.

Question: For CAGUUUAUCUGCAUCCGAATT against HDAC6, which median seed-adjusted z-score is on record?
Answer: The median seed-adjusted z-score was inactive: 0.0457.

Question: For GAGCUUACUUUGCCUGGAATT against PSMA2, which median seed-adjusted z-score is on record?
Answer: Its median seed-adjusted z-score is inactive: -0.54.

Question: For GGAAUAGUCCCAUUAGCAATT against PDIA3, which median seed-adjusted z-score is on record?
Answer: The median seed-adjusted z-score was inactive: -0.619.

Question: With GCAGCAUCCUAGAGGAAAATT against EIF2B5 as the sequence, how does the median seed-adjusted z-score read?
Answer: The median seed-adjusted z-score was inactive: -0.432.

Question: With CAGACUCGAUGAUCCGGAUTT against ATP1B4 as the sequence, how does the median seed-adjusted z-score read?
Answer: The median seed-adjusted z-score was inactive: 0.664.

Question: For GUGGAUUUCUUUAACCAGATT against MOBKL1B, which median seed-adjusted z-score is on record?
Answer: The median seed-adjusted z-score was inactive: 0.31.

Question: For GCACACUUGUAGUAGAUUATT against SOAT1, which median seed-adjusted z-score is on record?
Answer: The median seed-adjusted z-score was inactive: 0.409.

Question: Which median seed-adjusted z-score does the source give for GGAUGGAGUACAUAUUAUUTT against UTP11L here?
Answer: The median seed-adjusted z-score was inactive: -0.755.

Question: For GCCUUUCUGUGCUUAUAGATT against ZNF426, which median seed-adjusted z-score is on record?
Answer: Its median seed-adjusted z-score is inactive: 0.2.

Question: For CAGCUAAUCUAUUUCGAAUTT against MAN2A1, which median seed-adjusted z-score is on record?
Answer: The median seed-adjusted z-score was inactive: -0.397.

Question: Which median seed-adjusted z-score does the source give for GGUCCUUAUUUGCUCAGUATT against FCRL3 here?
Answer: Its median seed-adjusted z-score is inactive: -0.642.

Question: With UGAAGACGUGUGAACCUAATT against ARSD as the sequence, how does the median seed-adjusted z-score read?
Answer: Its median seed-adjusted z-score is inactive: -0.447.

Question: With GCCUACGAAUGUUAUGAAUTT against ZNF12 as the sequence, how does the median seed-adjusted z-score read?
Answer: Its median seed-adjusted z-score is inactive: -0.144.

Question: Which median seed-adjusted z-score does the source give for CAACCCUUAAUAGAACUAATT against PCDH20 here?
Answer: The median seed-adjusted z-score was inactive: 0.0594.

Question: With CCAUGAUCGAUGUCAUUGATT against GALNT17 as the sequence, how does the median seed-adjusted z-score read?
Answer: Its median seed-adjusted z-score is inactive: 0.392.

Question: For GGAGCUUUGUACAAUGAAATT against POU1F1, which median seed-adjusted z-score is on record?
Answer: The median seed-adjusted z-score was inactive: 0.5.

Question: For GGCAGAUGCUAAUAACGGATT against 6-Mar, which median seed-adjusted z-score is on record?
Answer: Its median seed-adjusted z-score is inactive: -0.483.

Question: With CUAUCCACCUUGGAUCGUATT against BAZ1A as the sequence, how does the median seed-adjusted z-score read?
Answer: Its median seed-adjusted z-score is inactive: 0.0896.

Question: Which median seed-adjusted z-score does the source give for CAGCUUCCAUUAUGCCCAATT against EIF2B2 here?
Answer: Its median seed-adjusted z-score is inactive: -0.325.

Question: With GGCUACAACGUGACCAAGATT against FZD4 as the sequence, how does the median seed-adjusted z-score read?
Answer: Its median seed-adjusted z-score is inactive: 0.0695.

Question: With GCAGUGUCCUAAGCCUGGATT against ACCS as the sequence, how does the median seed-adjusted z-score read?
Answer: Its median seed-adjusted z-score is inactive: -0.49.

Question: Which median seed-adjusted z-score does the source give for ACUCAAGUGUGCAAGUUCATT against KLK7 here?
Answer: Its median seed-adjusted z-score is inactive: 0.

Question: For GGAUUACGACUCUCGAGGATT against CPNE7, which median seed-adjusted z-score is on record?
Answer: Its median seed-adjusted z-score is inactive: 0.262.

Question: Which median seed-adjusted z-score does the source give for CGAGUACAGCGAUGACGAUTT against CAND2 here?
Answer: The median seed-adjusted z-score was inactive: 0.0936.

Question: For AGAUUGAGACCGUUCGCUUTT against RFXANK, which median seed-adjusted z-score is on record?
Answer: The median seed-adjusted z-score was inactive: -0.0665.

Question: With GUAGUUGACCAAGCUCAAATT against ACTR3B as the sequence, how does the median seed-adjusted z-score read?
Answer: Its median seed-adjusted z-score is inactive: -0.301.

Question: With GCAACAUUGCAGAAGAGCATT against TRIM28 as the sequence, how does the median seed-adjusted z-score read?
Answer: Its median seed-adjusted z-score is inactive: -0.718.

Question: For GCACCAGGGUGAAAGUGUUTT against NHLRC1, which median seed-adjusted z-score is on record?
Answer: The median seed-adjusted z-score was inactive: -0.582.
